From PubChem BioAssay (EPA / NIEHS)
This list was built around the results that the source calls inconclusive (neither active nor inactive); the mix of calls is not that of the screen. For some assays here: Where the call is inconclusive, the potency comes from a doubtful curve fit. Activity calls are given as the source filed them. The calls were made as follows: active = hit-call score of the fitted dose curve at least 0.9, where 1 is the maximum; inconclusive = response in the unintended direction; inactive = score below 0.9.

Chains of the proteins cited; added tags and fusions are not shown. Lines headed by an entry give the natural chain unless they say otherwise; changes in a name come on top.
UniProt Q92731, whole entry, looked up: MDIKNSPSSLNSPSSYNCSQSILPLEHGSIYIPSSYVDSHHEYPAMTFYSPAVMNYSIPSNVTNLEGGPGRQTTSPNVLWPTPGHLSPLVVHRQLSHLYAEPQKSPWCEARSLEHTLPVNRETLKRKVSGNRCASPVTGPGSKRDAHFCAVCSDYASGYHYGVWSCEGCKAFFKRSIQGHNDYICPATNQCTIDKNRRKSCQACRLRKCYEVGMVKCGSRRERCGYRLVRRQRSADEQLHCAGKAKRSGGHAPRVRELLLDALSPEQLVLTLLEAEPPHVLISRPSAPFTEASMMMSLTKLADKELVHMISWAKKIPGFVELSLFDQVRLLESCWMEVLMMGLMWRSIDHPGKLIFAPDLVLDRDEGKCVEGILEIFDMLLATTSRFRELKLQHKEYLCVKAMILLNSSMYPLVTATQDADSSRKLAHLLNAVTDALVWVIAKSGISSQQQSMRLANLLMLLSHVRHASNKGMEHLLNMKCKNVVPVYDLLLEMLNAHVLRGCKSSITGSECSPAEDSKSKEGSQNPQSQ
UniProt P10275: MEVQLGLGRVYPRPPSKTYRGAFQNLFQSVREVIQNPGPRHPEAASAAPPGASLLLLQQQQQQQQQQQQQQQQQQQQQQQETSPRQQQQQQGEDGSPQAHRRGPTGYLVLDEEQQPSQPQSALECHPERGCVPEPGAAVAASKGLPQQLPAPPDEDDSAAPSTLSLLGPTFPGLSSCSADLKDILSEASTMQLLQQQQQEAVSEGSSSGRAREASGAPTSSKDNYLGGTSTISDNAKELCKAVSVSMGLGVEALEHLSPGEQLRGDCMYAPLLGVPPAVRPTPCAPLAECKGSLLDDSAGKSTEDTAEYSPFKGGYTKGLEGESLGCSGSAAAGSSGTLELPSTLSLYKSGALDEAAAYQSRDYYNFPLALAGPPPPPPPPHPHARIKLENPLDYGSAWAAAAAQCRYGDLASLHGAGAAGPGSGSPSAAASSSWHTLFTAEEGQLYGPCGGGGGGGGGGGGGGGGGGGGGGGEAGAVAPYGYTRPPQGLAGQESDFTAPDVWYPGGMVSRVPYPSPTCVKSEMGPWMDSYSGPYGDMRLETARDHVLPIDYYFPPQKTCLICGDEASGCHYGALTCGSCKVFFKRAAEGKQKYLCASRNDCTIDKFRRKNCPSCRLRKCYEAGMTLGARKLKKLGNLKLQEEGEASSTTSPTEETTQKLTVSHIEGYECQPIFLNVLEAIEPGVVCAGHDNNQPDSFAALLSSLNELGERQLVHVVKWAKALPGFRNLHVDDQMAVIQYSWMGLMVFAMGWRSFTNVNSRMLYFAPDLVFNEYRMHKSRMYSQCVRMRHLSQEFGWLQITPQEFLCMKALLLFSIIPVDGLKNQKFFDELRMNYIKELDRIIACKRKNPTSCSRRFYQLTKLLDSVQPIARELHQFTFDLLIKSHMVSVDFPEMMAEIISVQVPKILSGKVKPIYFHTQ
UniProt P10828: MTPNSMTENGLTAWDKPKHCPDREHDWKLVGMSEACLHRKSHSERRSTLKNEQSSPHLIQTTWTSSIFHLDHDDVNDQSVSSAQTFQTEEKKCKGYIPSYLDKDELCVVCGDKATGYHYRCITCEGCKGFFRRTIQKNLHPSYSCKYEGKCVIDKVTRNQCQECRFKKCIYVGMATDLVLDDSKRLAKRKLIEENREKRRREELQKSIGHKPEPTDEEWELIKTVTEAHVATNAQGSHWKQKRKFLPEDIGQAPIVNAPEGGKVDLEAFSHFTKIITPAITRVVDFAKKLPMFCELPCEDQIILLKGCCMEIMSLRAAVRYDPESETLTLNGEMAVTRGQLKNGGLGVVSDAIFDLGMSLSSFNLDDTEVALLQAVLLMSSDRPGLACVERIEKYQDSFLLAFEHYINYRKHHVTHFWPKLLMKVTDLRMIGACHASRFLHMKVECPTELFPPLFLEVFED
UniProt P19793: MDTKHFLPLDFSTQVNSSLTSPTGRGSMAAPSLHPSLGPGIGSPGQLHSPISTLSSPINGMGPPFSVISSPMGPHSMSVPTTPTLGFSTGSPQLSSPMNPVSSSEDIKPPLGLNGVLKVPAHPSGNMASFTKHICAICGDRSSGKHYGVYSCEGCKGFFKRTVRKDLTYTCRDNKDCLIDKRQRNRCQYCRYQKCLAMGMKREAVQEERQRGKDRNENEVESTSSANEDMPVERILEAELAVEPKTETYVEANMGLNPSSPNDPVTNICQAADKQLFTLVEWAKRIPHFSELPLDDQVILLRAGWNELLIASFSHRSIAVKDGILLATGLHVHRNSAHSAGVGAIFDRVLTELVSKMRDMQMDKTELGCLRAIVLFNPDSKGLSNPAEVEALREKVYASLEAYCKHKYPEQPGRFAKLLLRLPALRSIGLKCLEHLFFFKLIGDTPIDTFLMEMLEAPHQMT
UniProt P42574: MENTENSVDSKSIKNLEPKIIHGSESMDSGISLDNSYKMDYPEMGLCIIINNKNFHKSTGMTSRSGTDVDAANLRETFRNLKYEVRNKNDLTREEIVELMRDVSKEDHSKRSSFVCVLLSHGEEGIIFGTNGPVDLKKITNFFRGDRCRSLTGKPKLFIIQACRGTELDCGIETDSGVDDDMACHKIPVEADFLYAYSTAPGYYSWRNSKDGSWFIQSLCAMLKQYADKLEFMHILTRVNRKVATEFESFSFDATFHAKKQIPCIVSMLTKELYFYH
UniProt P08254: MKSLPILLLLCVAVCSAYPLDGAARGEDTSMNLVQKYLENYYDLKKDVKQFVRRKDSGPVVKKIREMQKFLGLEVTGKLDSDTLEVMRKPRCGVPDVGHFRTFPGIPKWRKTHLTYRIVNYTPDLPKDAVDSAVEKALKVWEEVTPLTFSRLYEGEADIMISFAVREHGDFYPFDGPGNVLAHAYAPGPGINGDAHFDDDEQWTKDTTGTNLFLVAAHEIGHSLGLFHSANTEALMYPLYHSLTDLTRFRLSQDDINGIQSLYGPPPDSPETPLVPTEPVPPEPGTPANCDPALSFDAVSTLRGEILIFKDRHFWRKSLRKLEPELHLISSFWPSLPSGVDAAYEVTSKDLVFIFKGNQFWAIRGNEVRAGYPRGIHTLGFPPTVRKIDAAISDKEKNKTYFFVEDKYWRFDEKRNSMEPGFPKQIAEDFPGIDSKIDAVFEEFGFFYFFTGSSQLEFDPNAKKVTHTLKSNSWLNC
UniProt P22734: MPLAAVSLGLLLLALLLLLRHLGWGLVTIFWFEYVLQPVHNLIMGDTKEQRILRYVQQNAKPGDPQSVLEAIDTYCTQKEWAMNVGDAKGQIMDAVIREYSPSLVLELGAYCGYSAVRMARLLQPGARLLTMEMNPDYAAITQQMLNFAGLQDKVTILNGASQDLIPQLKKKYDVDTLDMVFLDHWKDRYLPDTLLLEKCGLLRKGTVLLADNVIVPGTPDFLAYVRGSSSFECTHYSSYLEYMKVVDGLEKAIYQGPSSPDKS
UniProt P31652, whole entry, looked up: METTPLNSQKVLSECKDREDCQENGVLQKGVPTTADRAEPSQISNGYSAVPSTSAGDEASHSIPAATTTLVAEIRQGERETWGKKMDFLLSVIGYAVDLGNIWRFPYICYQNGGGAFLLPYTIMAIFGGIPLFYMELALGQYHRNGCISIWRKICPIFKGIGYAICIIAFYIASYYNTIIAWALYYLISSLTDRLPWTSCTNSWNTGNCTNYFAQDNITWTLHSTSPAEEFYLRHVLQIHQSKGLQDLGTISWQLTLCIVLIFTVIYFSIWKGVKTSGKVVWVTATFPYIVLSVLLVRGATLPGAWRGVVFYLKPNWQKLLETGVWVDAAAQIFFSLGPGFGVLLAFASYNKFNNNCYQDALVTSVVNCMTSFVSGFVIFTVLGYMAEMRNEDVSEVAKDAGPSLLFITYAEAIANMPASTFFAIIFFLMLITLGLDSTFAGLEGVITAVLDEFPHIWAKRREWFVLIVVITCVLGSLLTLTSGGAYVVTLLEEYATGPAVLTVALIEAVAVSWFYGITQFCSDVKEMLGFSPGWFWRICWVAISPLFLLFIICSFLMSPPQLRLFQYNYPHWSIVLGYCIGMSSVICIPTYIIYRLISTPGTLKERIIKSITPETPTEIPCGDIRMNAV
UniProt P56481: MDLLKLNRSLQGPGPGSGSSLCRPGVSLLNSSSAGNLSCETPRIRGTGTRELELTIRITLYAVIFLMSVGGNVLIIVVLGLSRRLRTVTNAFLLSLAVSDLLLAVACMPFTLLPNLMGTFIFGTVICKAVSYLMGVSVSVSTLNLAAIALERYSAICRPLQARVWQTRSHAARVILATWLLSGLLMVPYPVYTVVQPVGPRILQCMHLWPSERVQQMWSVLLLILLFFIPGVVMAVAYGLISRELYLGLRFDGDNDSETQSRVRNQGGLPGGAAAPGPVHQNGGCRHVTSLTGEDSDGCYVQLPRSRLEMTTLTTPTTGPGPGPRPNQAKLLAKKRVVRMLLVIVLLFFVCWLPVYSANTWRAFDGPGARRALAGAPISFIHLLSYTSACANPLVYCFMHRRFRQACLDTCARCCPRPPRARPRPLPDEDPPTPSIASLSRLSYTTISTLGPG

Assays:
[1] = biological target: Estrogen receptor beta (Homo sapiens) (UniProt Q92731); assay: OT_ER_ERbERb_1440: Odyssey Thera (OT) 24-hour HEK293T Protein-Complementation Assay for Estrogen Receptor-beta/-beta Homodimer (AID 2283380);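 also: scored as signal increase over DMSO baseline for both agonists and antagonists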
Procedure, shortened: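 HEK293T cells stably expressing ER beta LBD (aa 310-547) homodimer fragment-complementation reporter, dosed 24 h. Cells formaldehyde-fixed, Draq5-stained; gain in nuclear (agonist) or nuclear plus cytoplasmic (antagonist) fluorescence versus DMSO read by laser scanning cytometry.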

[2] = CCTE_Shafer_MEA_dev_active_electrodes_number: CCTE's Neural Network Formation Assay for Number of Active Electrodes, Shafer Lab (AID 2284040)
Procedure, shortened: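 Developing rat cortical networks on MEAs, exposed DIV 0–12. Value is the AUC of active-electrode counts (≥5 spikes/min) from days 5, 7, 9, 12, relative to DMSO.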

[3] = CCTE_Shafer_MEA_dev_LDH: CCTE's Lactate Dehydrogenase Assay for Cytotoxicity in the Neural Network Formation Assay, Shafer Lab (AID 2284068);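 also: exposure for twelve days from plating with re-dosing on DIV 5 and 9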
Procedure, shortened: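 Cytotoxicity companion to network-formation recordings: rat cortical neurons received compound over 12 days of development, re-dosed at DIV 5 and 9 feeds. Viability was inferred from LDH enzyme activity relative to DMSO.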

[4] = biological target: Ratio of Nucleoli Translocation and Cytoplasm, AR (gene 367) (UniProt P10275); assay: UPITT_HCI_U2OS_AR_TIF2_Nucleoli_Cytoplasm_Ratio_Agonist: University of Pittsburgh U2OS Androgen Receptor-Transcriptional Intermediary Factor 2 (AR-TIF2) Agonism High Content Imaging Assay for Ratio of Nucleoli Translocation and Cytoplasm (AID 2284000);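 also: hits raise the red nucleolar to cytoplasm ratio above vehicle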
Procedure, shortened: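 Human osteosarcoma U2OS line, AR-RFP plus TIF2-GFP; compounds 0.195–50 uM final, 0.5% DMSO. Readout: nucleolar/cytoplasmic RFP ratio by HCI, positive direction vs DMSO baseline.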

[5] = ArunA_CellTiter_hNP: Viability Assessment in the ArunA Biomedical's Oris Neural Crest (hNC) Cell Migration Assay (AID 2283753)
Procedure, shortened: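 Viability read with CellTiter 96 Aqueous One after 72 h chemical exposure of human hNP1 neuroprogenitors, which were plated on Matrigel in LIF/bFGF medium 16 h beforehand. Endpoint fitted in positive direction relative to DMSO.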

[6] = ArunA_NOG_NeuritesPerNeuron: ArunA Biomedical's Neurite Outgrowth (NOG) Assay for Neurites Per Neuron (AID 2283758)
Procedure, shortened: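 Differentiated human H9-derived neurons exposed to chemicals for 48 h from seeding, then stained with Hoechst and βIII-tubulin/DyLight 488. Automated imaging counted neurites (processes >10 um) per valid neuron; loss of signal versus DMSO scored.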

THRB (gene 7068) = THRB (gene 7068) (UniProt P10828); assay: TOX21_TRB_BLA_Agonist_Followup_ratio: Tox21 Thyroid Hormone Receptor beta Agonism Beta-lactamase (BLA) Follow-Up Assay, Ratio (AID 2283954)
Procedure, shortened: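 Agonist mode: compounds (11-point, triplicate) incubated 18 h with HEK293T cells carrying GAL4-DBD/human TRβ-LBD and UAS-β-lactamase. Blue/green (460/530 nm) FRET ratio read after 2 h CCF4-AM loading; CellTiter-Glo viability run in the same plates.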

[7] = biological target: Retinoic acid receptor RXR-alpha (Homo sapiens) (UniProt P19793); assay: TOX21_TR_RXR_BLA_Agonist_Followup_ratio: Tox21 Thyroid Hormone Receptor beta Retinoid X Receptor alpha (RXRa) Agonism Beta-lactamase (BLA) Follow-Up Assay, Ratio (AID 2283968)
Procedure, shortened: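 Read-out: blue/green (460:530 nm) FRET ratio from cleaved vs uncleaved CCF4 substrate, fitted for gain of signal relative to DMSO. Cells: HEK293T with RXRa-UAS-bla reporter; 16 h compound exposure, 11 concentrations, triplicate.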

[8] = VALA_TUBHUV_Agonist_CellCount: Viability Assessment in the VALA Sciences human Umbilical Vein Endothelial Tubule Formation (TUBHUV) Agonism Assay (AID 2284309)
Procedure, shortened: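 Viability endpoint by fluorescent imaging of fixed nuclear/CD31-stained HUVEC–HDF co-cultures. Readout is cell count, fitted upward against 0.1% DMSO. Compound exposure was 72 h in 10 ng/ml VEGF, after 3-day co-culture priming.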

[9] = VALA_TUBIPS_Agonist_TubuleLength: VALA Sciences human iPS-derived Endothelial Tubule Formation (TUBIPS) Agonism Assay (AID 2284311)
Procedure, shortened: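 Agonist-mode readout is the gain in imaged tubule length versus DMSO baseline. It was measured by fluorescence high-content imaging 72 h after dosing human iPSC-derived endothelial cells.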

[10] = VALA_TUBIPS_Antagonist_CellCount: Viability Assessment in the VALA Sciences human iPS-derived Endothelial Tubule Formation (TUBIPS) Antagonism Assay (AID 2284335)
Caspase-3 (Homo sapiens) = Caspase-3 (Homo sapiens) (UniProt P42574); assay: NVS_ENZ_hCASP3: NovaScreen (NVS) Enzymatic Assay for human Caspase 3 (CASP3) (AID 2283139)
Procedure, shortened: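 Single-concentration screening at 25 uM in duplicate, with concentration-response follow-up to a 50 uM maximum for chemicals passing the threshold. Caspase-3 (human, E. coli-expressed) activity was read as substrate fluorescence after 1 h, with loss of signal relative to DMSO.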

[11] = biological target: human Matrix Metalloproteinase-3 (MMP3), MMP3 (gene 4314) (UniProt P08254); assay: NVS_ENZ_hMMP3: NovaScreen (NVS) Enzymatic Assay for human Matrix Metalloproteinase-3 (MMP3) (AID 2283185)
Procedure, shortened: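 Fluorescent substrate turnover by recombinant MMP3 read after 1 h, signal loss scored against DMSO. Compounds first run in duplicate at 25 uM single dose, then actives confirmed by concentration series.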

[12] = biological target: rat Catechol-O-Methyl Transferase (COMT), Comt (gene 24267) (UniProt P22734); assay: NVS_ENZ_rCOMT: NovaScreen (NVS) Enzymatic Assay for rat Catechol-O-Methyl Transferase (COMT) (AID 2283235)
Procedure, shortened: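 Rat dorsal striatum extract served as COMT source; product quantified by HPLC/spectrophotometry, read at 0 h after dosing. Primary single-concentration screen at 25 uM, followed by concentration series to a 50 uM maximum.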

[13] = biological target: rat Serotonin Transporter (SERT), Slc6a4 (gene 25553) (UniProt P31652); assay: NVS_TR_rSERT: NovaScreen (NVS) Transporter Assay for rat Serotonin Transporter (SERT) (AID 2283375)
Procedure, shortened: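 Rat forebrain membranes; radioligand displacement at SERT read by filter-based scintillation counting, 1 h after dosing. Screened in duplicate at 25 uM, actives then run in concentration series; loss of signal versus DMSO baseline.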

[14] = Tanguay_ZF_120hpf_BRAI_legacy: (Legacy) Oregon State University Tanguay Lab 120 Hour Post-fertilization zebrafish Assay for Brain Malformation (AID 2283641)
Procedure, shortened: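 Tropical 5D wild-type zebrafish embryos exposed statically until 120 hpf at 28C, 0.64% DMSO final, sealed and dark. Brain malformation scored present/absent by brightfield at 120 hpf; dead embryos excluded. Trimethyltin chloride 5uM positive control.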

[15] = Tanguay_ZF_120hpf_EYE_legacy: (Legacy) Oregon State University Tanguay Lab 120 Hour Post-fertilization zebrafish Assay for Eye Malformation (AID 2283636);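 also: binary presence or absence of eye malformation scored by brightfield in 120 hpf larvae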
Procedure, shortened: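 5D wild-type embryos, pronase-dechorionated at 4 hpf; static exposure 6–120 hpf, 28C, dark; DMSO 0.64% final; 5uM trimethyltin chloride positive control. Binary eye-defect scoring at 120 hpf; dead embryos not scored.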

[16] = Tanguay_ZF_120hpf_TRUN_legacy: (Legacy) Oregon State University Tanguay Lab 120 Hour Post-fertilization zebrafish Assay for Truncated Body (AID 2283655)
Procedure, shortened: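 Dechorionated Tropical 5D wild-type embryos placed singly from 6 hpf and statically exposed to 120 hpf at 28C, final DMSO 0.64%. Truncated body scored as present/absent by brightfield; not scored in dead embryos.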

[17] = biological target: human Thyroid hormone Receptor beta (TRb), THRB (gene 7068) (UniProt P10828); assay: ATG_hTRb_XSP2: Attagene TRANS-FACTORIAL Multi-Species (XSP2) HepG2 Assay for human Thyroid hormone Receptor beta (TRb) (AID 2283840);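 also: actives raise reporter mRNA so potency reflects agonist-like gain of signal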
Procedure, shortened: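 HepG2 transiently transfected with a multi-species panel including a human TRb–Gal4 chimera driving Gal4-UAS reporters; medium contained 3 nM 6-alpha-fluorotestosterone and 1.5 nM norgestrel. 24 h dosing; RT-PCR/capillary electrophoresis readout; positive-direction fit vs DMSO.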

[18] = biological target: mouse Cholecystokinin, CCK2 Receptor (CCKB), Cckbr (gene 12426) (UniProt P56481); assay: NVS_GPCR_mCKKBCentral: NovaScreen (NVS) G Protein-Coupled Receptor Assay for mouse Cholecystokinin, CCK2 Receptor (CCKB) (AID 2283293)
Procedure, shortened: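 Mouse forebrain membrane preparation incubated 2 h with chemical and radioligand; bound radioactivity counted after filtration. Single-concentration duplicate screen at 25 uM, then concentration series to 50 uM max for hits, DMSO as baseline.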

CCCCCCCCCCCCCCN(CCO)CCO
AC50 [1]: inconclusive: 50 µM

O=C(F)C(F)(F)C(F)(F)C(F)(F)C(=O)F
outcome [2]: inactive
AC50 [3]: inconclusive: 0.003 µM

CCCCCCOC(=O)c1ccccc1O
outcome [4]: inactive

Cc1cc(NC(=O)C(=O)O)cc(C)c1Oc1ccc(O)c2c1CCC2
AC50 [5]: inconclusive: 0.274 µM
AC50 [6]: inconclusive: 50 µM
AC50 (THRB (gene 7068)): active: 0.0848 µM
AC50 [7]: active: 21.6 µM
AC50 [8]: active: 91.7 µM
AC50 [9]: inconclusive: 0.112 µM
AC50 [10]: inconclusive: 0.00166 µM

Cc1oc(-c2ccccc2)nc1CCOc1ccc(C[C@H](Nc2ccccc2C(=O)c2ccccc2)C(=O)O)cc1
AC50 (Caspase-3 (Homo sapiens)): inconclusive: 46.1 µM
outcome [11]: inactive
AC50 [12]: inconclusive: 25 µM

Oc1ccc2c(c1)OC[C@@H](N1CCC(O)(c3ccc(F)cc3)CC1)[C@H]2O
outcome [13]: inactive
outcome [14]: inactive

CCCCCCCCCCCCCCCO
outcome [15]: inactive

C1=CCCC=CCCC=CCC1
outcome [16]: inactive

NC=O
outcome [15]: inactive

BrCc1cccc(Oc2ccccc2)c1
AC50 [17]: inconclusive: 100 µM

O=C(NO)C1(NS(=O)(=O)c2ccc(Oc3ccc(F)cc3)cc2)CCOCC1
AC50 [13]: inconclusive: 0.171 µM

CC1=CC(=O)CC(C)(C)C1
AC50 [18]: inconclusive: 1.15 µM

CCc1cc(SCc2sc(-c3ccc(C(F)(F)F)cc3)nc2CN2CCN(c3ccc(OC)cc3)CC2)ccc1OCC(=O)O
AC50 [18]: active: 35.3 µM
outcome [16]: inactive

CCCCC(CC)COC(=O)c1ccccc1C(=O)O (stereo unspecified)
outcome [14]: inactive
AC50 [17]: inconclusive: 5.11 µM
